Test results: the supplement of paper PMC10849652
This is one part of the list.

Amino acid sequences for entries named in this document (tags omitted). A change or cut given only in a name is not applied to a line headed by its entry.
UniProt Q9H9H4: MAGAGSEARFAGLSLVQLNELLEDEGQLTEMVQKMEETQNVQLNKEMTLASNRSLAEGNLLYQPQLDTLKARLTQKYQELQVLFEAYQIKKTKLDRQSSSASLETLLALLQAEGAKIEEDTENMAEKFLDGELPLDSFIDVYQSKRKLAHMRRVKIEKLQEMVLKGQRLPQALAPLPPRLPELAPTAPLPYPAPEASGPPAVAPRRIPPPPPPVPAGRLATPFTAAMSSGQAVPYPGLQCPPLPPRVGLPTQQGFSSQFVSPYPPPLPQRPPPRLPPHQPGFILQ
UniProt Q9P2S5: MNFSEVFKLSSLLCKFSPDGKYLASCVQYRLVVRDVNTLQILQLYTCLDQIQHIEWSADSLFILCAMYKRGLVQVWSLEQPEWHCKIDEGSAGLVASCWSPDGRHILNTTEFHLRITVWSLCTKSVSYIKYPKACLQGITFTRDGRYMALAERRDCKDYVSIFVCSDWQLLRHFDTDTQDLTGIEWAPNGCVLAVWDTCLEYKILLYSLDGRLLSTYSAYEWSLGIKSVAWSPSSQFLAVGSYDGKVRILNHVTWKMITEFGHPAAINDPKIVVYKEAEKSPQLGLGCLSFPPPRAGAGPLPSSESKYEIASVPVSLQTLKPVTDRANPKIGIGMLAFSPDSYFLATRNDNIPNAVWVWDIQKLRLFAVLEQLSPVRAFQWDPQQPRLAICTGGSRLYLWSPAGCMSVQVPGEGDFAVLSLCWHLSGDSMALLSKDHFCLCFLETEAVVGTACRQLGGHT
UniProt Q96S55: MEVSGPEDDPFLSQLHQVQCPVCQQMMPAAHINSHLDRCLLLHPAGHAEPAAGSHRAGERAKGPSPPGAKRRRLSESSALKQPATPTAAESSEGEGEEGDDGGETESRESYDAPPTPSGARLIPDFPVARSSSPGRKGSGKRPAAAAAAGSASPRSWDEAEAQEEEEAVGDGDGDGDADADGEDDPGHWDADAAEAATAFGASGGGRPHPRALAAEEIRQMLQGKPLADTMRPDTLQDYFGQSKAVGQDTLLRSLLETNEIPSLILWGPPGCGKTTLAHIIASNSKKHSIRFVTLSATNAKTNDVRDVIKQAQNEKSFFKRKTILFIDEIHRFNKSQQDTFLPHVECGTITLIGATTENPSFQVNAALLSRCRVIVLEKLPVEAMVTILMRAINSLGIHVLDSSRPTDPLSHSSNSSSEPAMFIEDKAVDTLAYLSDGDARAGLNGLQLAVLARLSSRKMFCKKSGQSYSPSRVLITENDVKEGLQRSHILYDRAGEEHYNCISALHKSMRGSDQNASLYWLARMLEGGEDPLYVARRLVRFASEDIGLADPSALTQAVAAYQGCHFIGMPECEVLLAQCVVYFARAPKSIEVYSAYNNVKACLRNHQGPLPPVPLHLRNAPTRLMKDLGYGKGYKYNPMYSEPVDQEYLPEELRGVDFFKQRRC
UniProt Q2M389: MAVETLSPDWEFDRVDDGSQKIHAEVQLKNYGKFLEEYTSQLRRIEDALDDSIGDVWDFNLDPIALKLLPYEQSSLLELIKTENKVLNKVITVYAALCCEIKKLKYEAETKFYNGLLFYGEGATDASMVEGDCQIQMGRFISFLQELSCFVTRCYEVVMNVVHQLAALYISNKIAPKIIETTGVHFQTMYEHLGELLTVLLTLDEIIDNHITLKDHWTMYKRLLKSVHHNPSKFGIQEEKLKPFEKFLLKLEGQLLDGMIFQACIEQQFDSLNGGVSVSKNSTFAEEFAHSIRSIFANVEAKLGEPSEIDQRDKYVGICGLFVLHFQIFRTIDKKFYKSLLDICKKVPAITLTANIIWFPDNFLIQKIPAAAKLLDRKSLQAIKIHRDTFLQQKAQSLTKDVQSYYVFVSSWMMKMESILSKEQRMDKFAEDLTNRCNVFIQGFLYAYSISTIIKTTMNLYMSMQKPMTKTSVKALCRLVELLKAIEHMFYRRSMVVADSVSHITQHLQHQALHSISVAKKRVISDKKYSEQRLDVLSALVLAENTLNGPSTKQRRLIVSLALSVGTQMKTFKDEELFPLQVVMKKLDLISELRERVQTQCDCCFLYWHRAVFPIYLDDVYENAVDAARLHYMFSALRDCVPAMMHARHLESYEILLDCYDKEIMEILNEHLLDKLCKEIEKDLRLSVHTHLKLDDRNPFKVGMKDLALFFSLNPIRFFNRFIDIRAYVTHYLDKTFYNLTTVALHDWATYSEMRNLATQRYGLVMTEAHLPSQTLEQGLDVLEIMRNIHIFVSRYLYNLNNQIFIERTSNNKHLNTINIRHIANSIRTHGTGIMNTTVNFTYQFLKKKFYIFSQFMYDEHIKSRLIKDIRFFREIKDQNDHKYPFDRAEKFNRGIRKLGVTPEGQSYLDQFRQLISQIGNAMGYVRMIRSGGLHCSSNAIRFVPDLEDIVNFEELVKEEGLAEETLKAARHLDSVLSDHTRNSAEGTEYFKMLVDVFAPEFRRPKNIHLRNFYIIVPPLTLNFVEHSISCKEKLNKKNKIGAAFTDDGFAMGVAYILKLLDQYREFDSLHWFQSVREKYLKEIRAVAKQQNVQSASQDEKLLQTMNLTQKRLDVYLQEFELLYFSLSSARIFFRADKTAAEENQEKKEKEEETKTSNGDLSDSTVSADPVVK
UniProt Q8N9V3: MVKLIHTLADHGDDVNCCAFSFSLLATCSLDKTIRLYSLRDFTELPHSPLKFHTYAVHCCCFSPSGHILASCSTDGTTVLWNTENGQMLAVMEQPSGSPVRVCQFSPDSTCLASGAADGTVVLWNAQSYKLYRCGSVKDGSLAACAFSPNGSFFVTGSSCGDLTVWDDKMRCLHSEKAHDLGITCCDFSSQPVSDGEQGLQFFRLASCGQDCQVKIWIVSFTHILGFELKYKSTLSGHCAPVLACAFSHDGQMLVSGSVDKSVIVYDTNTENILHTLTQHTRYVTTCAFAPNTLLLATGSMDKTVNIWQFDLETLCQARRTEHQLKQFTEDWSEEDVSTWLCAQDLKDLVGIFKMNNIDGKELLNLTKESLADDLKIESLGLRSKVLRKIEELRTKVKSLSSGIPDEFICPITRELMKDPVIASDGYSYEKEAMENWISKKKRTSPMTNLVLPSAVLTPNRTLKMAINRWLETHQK
UniProt Q6RFH5: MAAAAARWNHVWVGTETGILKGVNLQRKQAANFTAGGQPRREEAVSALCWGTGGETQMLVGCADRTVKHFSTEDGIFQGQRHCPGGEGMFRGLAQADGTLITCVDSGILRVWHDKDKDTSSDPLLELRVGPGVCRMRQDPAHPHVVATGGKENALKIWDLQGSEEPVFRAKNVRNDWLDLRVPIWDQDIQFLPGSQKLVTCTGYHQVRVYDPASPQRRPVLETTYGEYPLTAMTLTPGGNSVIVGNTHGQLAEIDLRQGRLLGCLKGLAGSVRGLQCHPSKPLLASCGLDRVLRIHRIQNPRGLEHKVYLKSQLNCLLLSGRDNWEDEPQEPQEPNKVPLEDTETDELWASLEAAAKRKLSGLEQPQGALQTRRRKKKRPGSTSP
UniProt P23381: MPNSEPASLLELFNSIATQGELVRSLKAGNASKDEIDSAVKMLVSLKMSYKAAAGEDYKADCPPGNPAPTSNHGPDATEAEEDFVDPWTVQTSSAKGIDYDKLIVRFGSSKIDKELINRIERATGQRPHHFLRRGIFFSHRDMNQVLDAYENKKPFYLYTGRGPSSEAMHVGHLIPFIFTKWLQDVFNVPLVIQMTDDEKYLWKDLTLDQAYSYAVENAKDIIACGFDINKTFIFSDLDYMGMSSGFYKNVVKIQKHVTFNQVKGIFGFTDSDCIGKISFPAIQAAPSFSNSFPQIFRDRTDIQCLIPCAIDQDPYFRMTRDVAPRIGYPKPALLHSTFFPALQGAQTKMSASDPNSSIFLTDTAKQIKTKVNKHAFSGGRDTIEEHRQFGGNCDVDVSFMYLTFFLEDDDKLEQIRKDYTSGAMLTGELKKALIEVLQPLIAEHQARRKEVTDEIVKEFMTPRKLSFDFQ
UniProt Q9H6Y2: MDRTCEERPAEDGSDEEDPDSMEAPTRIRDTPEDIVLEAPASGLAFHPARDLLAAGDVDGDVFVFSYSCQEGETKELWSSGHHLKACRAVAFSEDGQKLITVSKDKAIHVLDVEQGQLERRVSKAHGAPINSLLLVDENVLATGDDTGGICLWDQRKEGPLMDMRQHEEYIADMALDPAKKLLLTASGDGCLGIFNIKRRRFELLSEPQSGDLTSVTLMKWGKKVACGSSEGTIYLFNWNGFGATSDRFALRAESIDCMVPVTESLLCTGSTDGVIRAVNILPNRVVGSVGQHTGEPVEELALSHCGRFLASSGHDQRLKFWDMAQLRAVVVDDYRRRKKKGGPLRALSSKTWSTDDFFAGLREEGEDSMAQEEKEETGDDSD
UniProt O00401, whole entry, looked up: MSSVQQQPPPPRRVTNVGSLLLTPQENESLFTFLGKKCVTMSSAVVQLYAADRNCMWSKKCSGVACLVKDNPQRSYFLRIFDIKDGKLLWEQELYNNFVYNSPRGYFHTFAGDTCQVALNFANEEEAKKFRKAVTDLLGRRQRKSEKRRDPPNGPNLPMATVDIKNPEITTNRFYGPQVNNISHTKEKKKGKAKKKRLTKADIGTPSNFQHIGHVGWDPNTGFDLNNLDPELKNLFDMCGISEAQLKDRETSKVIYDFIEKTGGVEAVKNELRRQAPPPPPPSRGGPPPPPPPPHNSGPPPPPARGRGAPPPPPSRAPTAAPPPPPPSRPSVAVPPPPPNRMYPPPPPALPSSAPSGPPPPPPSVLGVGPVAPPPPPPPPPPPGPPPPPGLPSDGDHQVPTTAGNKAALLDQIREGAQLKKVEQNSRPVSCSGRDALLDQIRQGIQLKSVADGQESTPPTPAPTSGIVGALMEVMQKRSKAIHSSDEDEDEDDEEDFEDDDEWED
UniProt Q5MNZ6: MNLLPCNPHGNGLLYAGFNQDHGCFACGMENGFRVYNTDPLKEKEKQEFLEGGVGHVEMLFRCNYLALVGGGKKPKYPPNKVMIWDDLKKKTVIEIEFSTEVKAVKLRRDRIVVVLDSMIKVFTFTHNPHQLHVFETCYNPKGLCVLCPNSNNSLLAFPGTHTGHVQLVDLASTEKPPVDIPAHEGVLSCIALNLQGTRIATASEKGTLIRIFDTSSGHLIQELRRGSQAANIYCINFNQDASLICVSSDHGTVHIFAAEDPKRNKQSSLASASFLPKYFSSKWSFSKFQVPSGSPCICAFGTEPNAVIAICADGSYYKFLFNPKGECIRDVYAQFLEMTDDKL
UniProt Q9Y6W5, whole entry, looked up: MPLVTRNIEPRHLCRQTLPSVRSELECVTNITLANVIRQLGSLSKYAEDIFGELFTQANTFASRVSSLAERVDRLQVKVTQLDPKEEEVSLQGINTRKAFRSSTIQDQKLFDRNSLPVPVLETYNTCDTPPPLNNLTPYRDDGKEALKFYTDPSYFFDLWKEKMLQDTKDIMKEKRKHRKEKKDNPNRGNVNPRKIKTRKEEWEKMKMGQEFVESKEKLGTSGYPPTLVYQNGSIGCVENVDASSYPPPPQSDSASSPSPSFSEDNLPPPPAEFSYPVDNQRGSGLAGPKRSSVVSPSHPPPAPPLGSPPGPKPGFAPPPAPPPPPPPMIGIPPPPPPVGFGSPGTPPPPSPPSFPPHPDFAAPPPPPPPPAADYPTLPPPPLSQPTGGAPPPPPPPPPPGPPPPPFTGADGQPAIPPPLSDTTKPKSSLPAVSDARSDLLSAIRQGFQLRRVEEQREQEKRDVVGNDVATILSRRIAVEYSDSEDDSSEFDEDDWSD

What was measured:
Test in all cases: log2 fold change, soluble protein after heating vs DMSO (PISA); higher = thermal stabilisation; K562 cells, 10 uM, 30 min; active = over 0.2 and 3.5 SD of the protein, either way, in both replicates (recomputed)
[1] = compound: CC1=C(C=C(C=C1)NC(=O)C2=CC(=CC=C2)C(C)(C)C#N)NC3=CC4=C(C=C3)N=CN(C4=O)C
Method in brief: (§1)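 Quantification of soluble protein used TMTpro 16plex LC-MS/MS, with channel sums equalised. Samples were the supernatant after 21,000xg for 90 min of pooled aliquots from K562 cells (2×10^6 cells/mL) treated with 10 μM compound for 30 min, heated for 3 min over 48°C-58°C, and extracted in PBS with 0.5% NP-40 at 4°C. Values, from duplicates, describe thermal stability against control samples on a log2 fold-change scale.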

[2] = compound: CC1=C(C=C(C=C1)NC(=O)C2=CC(=CC=C2)N(C)C)NC(=O)C3=CC=C(C=C3)O
Method in brief: as §1

[3] = compound: CC1=CC=C(C=C1)SC2=C3C=C(SC3=CN=C2)C(=O)N
Method in brief: as §1

[4] = compound: CC1=NC(=CC=C1)C2=C(N=C(N2)C(C)(C)C)C3=CC4=NC=CN=C4C=C3
Method in brief: as §1

Nexturastat A = compound: CCCCN(Cc1ccc(C(=O)NO)cc1)C(=O)Nc1ccccc1 [Nexturastat A]
Method in brief: as §1

vemurafenib = compound: CCCS(=O)(=O)Nc1ccc(F)c(C(=O)c2c[nH]c3ncc(-c4ccc(Cl)cc4)cc23)c1F [vemurafenib]
Method in brief: as §1

[5] = compound: CCCS(=O)(=O)Nc1ccc(F)c(C(=O)c2c[nH]c3ncc(Cl)cc23)c1F
Method in brief: as §1

[6] = compound: CCCc1cc(C)[nH]c(=O)c1CNC(=O)c1cc(-c2ccnc(N3CCN(C)CC3)c2)cc2c1cnn2C(C)C
Method in brief: as §1

givinostat = compound: CCN(CC)Cc1ccc2cc(COC(=O)Nc3ccc(C(=O)NO)cc3)ccc2c1 [givinostat]
Method in brief: as §1

barasertib = compound: CCN(CCCOc1ccc2c(Nc3cc(CC(=O)Nc4cccc(F)c4)[nH]n3)ncnc2c1)CCOP(=O)(O)O [barasertib]
Method in brief: as §1

[7] = compound: CC[C@@H]1C(=O)N(C)c2cnc(Nc3ccc(C(=O)NC4CCN(C)CC4)cc3OC)nc2N1C1CCCC1
Method in brief: as §1

volasertib = compound: CC[C@@H]1C(=O)N(C)c2cnc(Nc3ccc(C(=O)N[C@H]4CC[C@H](N5CCN(CC6CC6)CC5)CC4)cc3OC)nc2N1C(C)C [volasertib]
Method in brief: as §1

[8] = compound: CC[C@H](C)N1C=C(C2=C(C=C(C=C21)C3=CN=C(C=C3)N4CCNCC4)C(=O)NCC5=C(C=C(NC5=O)C)C)C
Method in brief: as §1

epoxomicin = compound: CC[C@H](C)[C@@H](C(=O)N[C@@H]([C@@H](C)O)C(=O)N[C@@H](CC(C)C)C(=O)[C@]1(CO1)C)NC(=O)[C@H]([C@@H](C)CC)N(C)C(=O)C [epoxomicin]
Method in brief: as §1

[9] = compound: CCn1c(C(=O)N(C2CC2)C2CC2)cc2c3c(ncn3C)c(Nc3cc(C)n(C)n3)nc21
Method in brief: as §1

[10] = compound: CCn1cc(-c2ccnc3[nH]c(-c4cccc(CN(C)C)c4)cc23)c(-c2ccc(NC(=O)N(C)C)cc2)n1
Method in brief: as §1

[11] = compound: CN(C)CC(=O)Nc1ccc2[nH]c(=O)c3ccccc3c2c1
Method in brief: as §1

rosiglitazone = compound: CN(CCOC1=CC=C(C=C1)C[C@H]2C(=O)NC(=O)S2)C3=CC=CC=N3 (racemic) [rosiglitazone]
Method in brief: as §1

[12] = compound: CN1C2=C(C3=C1C(=O)N(N=C3)CC4=CC(=CC=C4)N)SC(=C2)S(=O)C
Method in brief: as §1

[13] = compound: CN1CCC(CNc2ccc3ncc(-c4cccc(OC(F)(F)F)c4)n3n2)CC1
Method in brief: as §1

Measured: log2 fold change

VPS37B (UniProt Q9H9H4)
inactive: [1] 0.002 | [2] -0.046 | [3] 0.253 | [4] 0.028 | Nexturastat A 0.009 | vemurafenib 0.173 | [5] 0.156 | [6] 0.017 | givinostat 0.055 | barasertib 0.034 | [7] -0.223 | volasertib -0.086 | [8] 0.183 | epoxomicin 0.042 | [9] -0.09 | [10] -0.269 | [11] 0.187 | rosiglitazone 0.051 | [12] 0.027 | [13] 0.109

VPS29 isoform 2 (UniProt Q9UBQ0)
inactive: [1] 0 | [2] -0.001 | [3] -0.003 | [4] 0.024 | Nexturastat A -0.058 | vemurafenib -0.003 | [5] 0.009 | [6] -0.039 | givinostat -0.046 | barasertib 0.013 | [7] -0.001 | volasertib 0.067 | [8] -0.016 | epoxomicin 0.041 | [9] -0.007 | [10] 0.001 | [11] -0.01 | rosiglitazone 0.022 | [12] -0.068 | [13] -0.075

WRAP73 (UniProt Q9P2S5)
inactive: [1] 0.016 | [2] -0.003 | [3] 0.007 | [4] -0.043 | Nexturastat A 0.037 | vemurafenib -0.018 | [5] -0.017 | [6] 0.001 | givinostat 0.029 | barasertib -0.134 | [7] 0.052 | volasertib -0.021 | [8] -0.007 | epoxomicin -0.07 | [9] -0.02 | [10] -0.028 | [11] -0.096 | rosiglitazone 0.034 | [12] -0.051 | [13] -0.034

WRNIP1 (UniProt Q96S55)
inactive: [1] -0.082 | [2] 0.032 | [3] -0.056 | [4] 0.052 | Nexturastat A -0.169 | vemurafenib 0.036 | [5] 0.009 | [6] 0.116 | givinostat 0.059 | barasertib 0.125 | [7] -0.123 | volasertib -0.327 | [8] 0.283 | epoxomicin 0.15 | [9] -0.093 | [10] -0.058 | [11] 0.096 | rosiglitazone 0.081 | [12] 0.035 | [13] -0.371

WASHC4 (UniProt Q2M389)
inactive: [1] 0.019 | [2] -0.037 | [3] 0 | [4] 0.035 | Nexturastat A -0.007 | vemurafenib -0.008 | [5] -0.088 | [6] 0.03 | givinostat 0.103 | barasertib 0.035 | [7] -0.001 | volasertib -0.228 | [8] 0.271 | epoxomicin -0.057 | [9] -0.004 | [10] -0.02 | [11] 0.065 | rosiglitazone 0.1 | [12] 0.063 | [13] -0.273

WDSUB1 (UniProt Q8N9V3)
inactive: [1] -0.041 | [2] -0.003 | [3] 0.018 | [4] -0.001 | Nexturastat A -0.004 | vemurafenib 0.009 | [5] 0.016 | [6] -0.086 | givinostat -0.041 | barasertib 0.025 | [7] -0.021 | volasertib -0.105 | [8] 0.005 | epoxomicin -0.001 | [9] -0.022 | [10] 0.015 | [11] 0.033 | rosiglitazone 0.031 | [12] -0.087 | [13] -0.044

WDR74 (UniProt Q6RFH5)
inactive: [1] -0.041 | [2] -0.04 | [3] -0.067 | [4] -0.099 | Nexturastat A 0.195 | vemurafenib -0.061 | [5] -0.029 | [6] 0.005 | givinostat 0.032 | barasertib -0.098 | [7] 0.134 | volasertib 0.201 | [8] -0.041 | epoxomicin -0.121 | [9] 0.016 | [10] 0.062 | [11] -0.115 | rosiglitazone -0.079 | [12] 0.087 | [13] 0.144

WARS (UniProt P23381)
inactive: [1] -0.021 | [2] -0.008 | [3] -0.002 | [4] 0.008 | Nexturastat A -0.028 | vemurafenib 0.004 | [5] -0.014 | [6] 0.024 | givinostat -0.06 | barasertib -0.007 | [7] -0.019 | volasertib 0.073 | [8] -0.016 | epoxomicin 0.019 | [9] 0.012 | [10] -0.015 | [11] -0.015 | rosiglitazone -0.02 | [12] -0.055 | [13] -0.011

WDR26, A0A499FIZ0
inactive: [1] 0.017 | [2] -0.017 | [3] -0.042 | [4] -0.02 | Nexturastat A -0.063 | vemurafenib -0.032 | [5] -0.031 | [6] -0.07 | givinostat -0.036 | barasertib 0.026 | [7] -0.028 | volasertib -0.075 | [8] 0.022 | epoxomicin -0.021 | [9] 0.028 | [10] 0.014 | [11] -0.023 | rosiglitazone -0.025 | [12] 0.028 | [13] 0.006

WDR55 (UniProt Q9H6Y2)
inactive: [1] 0.007 | [2] -0.03 | [3] 0.025 | [4] 0.023 | Nexturastat A -0.123 | vemurafenib -0.028 | [5] -0.014 | [6] -0.032 | givinostat -0.029 | barasertib 0.01 | [7] -0.013 | volasertib 0.021 | [8] 0 | epoxomicin 0.034 | [9] 0.003 | [10] -0.037 | [11] 0.034 | rosiglitazone 0.008 | [12] -0.048 | [13] 0.003

WASL (UniProt O00401)
inactive: [1] 0.011 | [2] -0.126 | [3] -0.01 | [4] 0.032 | Nexturastat A -0.065 | vemurafenib 0.044 | [5] 0.078 | [6] -0.034 | givinostat -0.085 | barasertib 0.034 | [7] -0.123 | volasertib -0.12 | [8] -0.027 | epoxomicin 0.024 | [9] 0.027 | [10] 0 | [11] 0.047 | rosiglitazone 0.092 | [12] -0.075 | [13] -0.072

WDR5 (UniProt P61964)
inactive: [1] -0.02 | [2] 0.029 | [3] -0.046 | [4] -0.021 | Nexturastat A 0.107 | vemurafenib -0.065 | [5] -0.015 | [6] 0.064 | givinostat -0.14 | barasertib -0.091 | [7] 0.095 | volasertib 0.135 | [8] -0.044 | epoxomicin -0.114 | [9] -0.023 | [10] 0.099 | [11] -0.004 | rosiglitazone -0.085 | [12] 0.124 | [13] 0.091

Reprinted from the listing (two entries):
WARS (UniProt P23381)
inactive: [1] -0.021 | [2] -0.008 | [3] -0.002 | [4] 0.008 | Nexturastat A -0.028 | vemurafenib 0.004 | [5] -0.014 | [6] 0.024 | givinostat -0.06 | barasertib -0.007 | [7] -0.019 | volasertib 0.073 | [8] -0.016 | epoxomicin 0.019 | [9] 0.012 | [10] -0.015 | [11] -0.015 | rosiglitazone -0.02 | [12] -0.055 | [13] -0.011

WDR26, A0A499FIZ0
inactive: [1] 0.017 | [2] -0.017 | [3] -0.042 | [4] -0.02 | Nexturastat A -0.063 | vemurafenib -0.032 | [5] -0.031 | [6] -0.07 | givinostat -0.036 | barasertib 0.026 | [7] -0.028 | volasertib -0.075 | [8] 0.022 | epoxomicin -0.021 | [9] 0.028 | [10] 0.014 | [11] -0.023 | rosiglitazone -0.025 | [12] 0.028 | [13] 0.006

The listing continues:

WDTC1 (UniProt Q8N5D0)
inactive: [1] -0.093 | [2] -0.133 | [3] 0.023 | [4] -0.188 | Nexturastat A 0.043 | vemurafenib 0.008 | [5] 0.08 | [6] -0.041 | givinostat 0.113 | barasertib -0.011 | [7] 0.051 | volasertib -0.236 | [8] 0.339 | epoxomicin 0.078 | [9] -0.042 | [10] -0.021 | [11] -0.056 | rosiglitazone 0.007 | [12] 0.075 | [13] -0.018

WDR45B (UniProt Q5MNZ6)
inactive: [1] 0.069 | [2] 0.01 | [3] 0.018 | [4] 0.042 | Nexturastat A 0.003 | vemurafenib -0.015 | [5] -0.064 | [6] 0.021 | givinostat 0.031 | barasertib -0.021 | [7] 0.062 | volasertib -0.025 | [8] 0.019 | epoxomicin 0.034 | [9] -0.046 | [10] -0.131 | [11] 0.012 | rosiglitazone 0.038 | [12] -0.043 | [13] 0.017

WASF2 (UniProt Q9Y6W5)
inactive: [1] 0.007 | [2] 0.003 | [3] -0.001 | [4] 0.024 | Nexturastat A 0.131 | vemurafenib -0.02 | [5] -0.019 | [6] 0.014 | givinostat -0.002 | barasertib -0.02 | [7] -0.036 | volasertib -0.104 | [8] 0.015 | epoxomicin -0.014 | [9] 0.071 | [10] 0.039 | [11] -0.029 | rosiglitazone -0.011 | [12] -0.029 | [13] -0.042

VPS13A (UniProt Q96RL7)
inactive: [1] -0.011 | [2] 0.031 | [3] 0.008 | [4] 0.002 | Nexturastat A -0.039 | vemurafenib -0.046 | [5] 0.016 | [6] -0.02 | givinostat 0.011 | barasertib -0.008 | [7] 0.037 | volasertib -0.031 | [8] 0.008 | epoxomicin -0.012 | [9] -0.02 | [10] 0.015 | [11] 0.023 | rosiglitazone 0 | [12] -0.037 | [13] -0.032
